± gives the standard deviation. The entries are a selection whose mix differs from that of the whole data set. Many of these values have a large error.
These sequences were tested on EfPiwi piRISC loaded with piRNA #1 (26 nt) (assay: pre-steady-state target cleavage rate (min^-1); guide: piRNA #1 5'p-UGAGGUAGUAGGUUGUAUAGUAUCCA; MIWI and MILI are mouse PIWI proteins and EfPiwi is from a freshwater sponge; tags in brackets are library labels; higher = faster piRNA-guided slicing of the target). Conditions: auxiliary factor: 500 nM Ephydatia muelleri Gtsf1.
Outline: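 In this Cleave-'n-Seq assay, uncleaved targets were sequenced and normalised to depth and to weakly complementary targets. They came from a transcribed, DNA-blocked target RNA library […] mixed with 1 nM active affinity-purified piRISC carrying one synthetic guide, with or without 500 nM GTSF1 partner protein, in HEPES–potassium acetate buffer at 33 °C for 0–8 or 0–960 min. After three trials were pooled and k3 was capped at 0.0001 min^-1, the pre-steady-state cleavage rate was obtained from a burst-and-steady-state fit.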

Sequence	pre-steady-state target cleavage rate
GGAGACCUAUGAAUACAACCUACUACCUCU [g2:g18:cont:t1U]	0.688 ± 0.25
GGAGACCUAACUAUACAACGUACUACGUCA	0.00291 ± 0.0026
GGAGACGAUACUAUCCAACCUACUACCUCA	0.00717 ± 0.0028
GGAGACCUAACUAUACUACCUUCUACCUCA	0.000838 ± 0.0084
GGAGACCAUACUAUACAACCUACUACCUCG [g2:g23:cont:t1G]	0.0177 ± 0.0074
GGAGUGGAUUCUAUACAACCUACUACCUGA	0.00261 ± 0.002
GGAGAGGAUACUAUACUACCUACAACCUCA	0.00213 ± 0.0022
GGAGACCUUACUAUACAACCUACUACCUCA [g2:g22:cont:t1A]	0.0238 ± 0.0084
GGAGACCAUACUUUACAACCUACUACGUCA	0.00268 ± 0.0031
GGAGACCUAUGAUUAGCAACCUACUACCUCA	0.00184 ± 0.0048
GGAGACCUAACUAUUGAACCUACUACCUCA	0.00116 ± 0.0071
GGAGAGGAAACUAUACAACCUACUACCUCA	0.00596 ± 0.0036
GGAGACCUUACUAUACUACCUAGUACCUCA	0.00194 ± 0.0024
GGAGACCUAACUAUACAACCUACUACCAGA	0.00445 ± 0.0031
GGAGACCUAACUAUACAAGCUUCUACCUCA	0.00252 ± 0.0042
GGAGACCUAUCUUUACAACCUACUACGUCA	0.00151 ± 0.0043
GGAGUGGAUACUAUUCAACCUACAACCUCA	0.00255 ± 0.0022
GGAGACCAUACUAUACAACUACUACCUCA	0.00486 ± 0.0035
GGAGACGUUACUAUACUACCUACUACCUCA	0.00494 ± 0.0024
GGAGACCUAAGUAUACAACCUACUACCUCA	0.00697 ± 0.0037

Some values from the list.
GGAGACCUUACUAUACAACCUACUACCUCA [g2:g22:cont:t1A] – pre-steady-state target cleavage rate: 0.0238 ± 0.0084
GGAGACCUAACUAUACUACCUUCUACCUCA – pre-steady-state target cleavage rate: 0.000838 ± 0.0084
GGAGACCUUACUAUACUACCUAGUACCUCA – pre-steady-state target cleavage rate: 0.00194 ± 0.0024

(cont.)

Sequence	pre-steady-state target cleavage rate
GGAGAGGAUACAAUUCAACCUACUACCUCA	0.00331 ± 0.0043
GGAGACCUAUGAUAUGUUCCUACUAACUCA	0.000163 ± 0.013
GGAGACGAUACUAAUGAACCUACUACCUCA	0.00034 ± 0.0067
GGAGUCGAUACUAUACAAGCUACUACCUCA	0.00581 ± 0.0024
GGAGACCUUUCUAUACAACCUACUAGCUCA	0.00299 ± 0.003
GGAGACCUAUCUAUACAAGCUACAACCUCA	0.00113 ± 0.0047
GGAGUGGAUACUAUACAACCAACUACCUCA	0.00568 ± 0.002
GGAGACCUUACAAUAGAACCUACUACCUCA	0.00085 ± 0.0074
GGAGACGUUACUUUACAACCUACUACCUCA	0.00215 ± 0.0037
GGAGAGGAUACUAUGACAACCUACUACCUCA	0.102 ± 0.041
GGAGACCUAUCUAUACAACCGACUACCUCA	0.00301 ± 0.0044
GGAGAGGUUACUAUACAACCUACUACGUCA	0.00435 ± 0.0016
GGAGACCUAUGUAUGACAACCUACUACCUCA	0.0022 ± 0.0043
GGAGACCUAUGUAUACCACCUACUACCUCA	0.00155 ± 0.0053
GGAGUGGAUACUAUAGAACCUUCUACCUCA	0.00334 ± 0.0018
GGAGAGGAUACUAUACAACCUACUACCUCA [g2:g25:cont:t1A]	0.0912 ± 0.033
GGAGACCUAUUUAUACAACCUACUACCUCA	0.00367 ± 0.007
GGAGACGUUACUAUACAACCUACUUCCUCA	0.00144 ± 0.0025
GGAGACCUAUCUAAACAACCUUCUACCUCA	0.00108 ± 0.0062
GGAGACCUAACUAUACAACGUACUACCACA	0.0055 ± 0.0049

Reference: the supplement of paper PMC10338343
